# Source: the supplement of paper PMC10735217
# Structures can show the parent of a compound that is named as a salt. This is one part of the list. Single values are uncertain here, since repeats match poorly.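 In a drug-repurposing library screen, luminescence reads luciferase driven by eight TEAD-binding elements, stably integrated into human kidney-derived cells. Compounds scoring over five robust Z scores above the plate mean are called hits.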
# Test system: HEK293A TEAD-LUC reporter
# Experiment: TEAD-luciferase reporter activity (YAP activation), robust Z score vs plate; higher = stronger YAP/TEAD activation
# Conditions: 24 h
SMILES,TEAD-luciferase reporter activity (compound concentration: 200 nM),TEAD-luciferase reporter activity (compound concentration: 2 uM),TEAD-luciferase reporter activity (compound concentration: 10 uM)
[Cl][Hg][Cl],inactive: 0.367,inactive: 0.113,inactive: -0.252
CCC(=O)O[C@@H]1C=C2CCC3C(CCC4(C)C3CC[C@@H]4OC(=O)CC)C2CC1 (some centres undefined),inactive: -0.636,inactive: -2.11,inactive: -0.381
COC(C(=O)OC(C)CN(C)C)(c1ccccc1)c1ccccc1 (centres undefined),inactive: 3.17,inactive: -0.151,inactive: 3.33
"CC(=O)O[C@H]1CC[C@]2(C)C3C(CC[C@@H]2C1)[C@@]1(O)CC[C@H](c2ccc(=O)oc2)[C@@]1(C)C[C@H]3OC(C)=O (some centres undefined) [Gamabutotalin, Derivative of]",inactive: -0.611,inactive: 1.28,inactive: 0.493
CC(C)NC(=O)CNC(=O)[C@@H](Cc1ccccc1)N(C)C(=O)CNC(=O)[C@@H](C)NC(=O)[C@@H](N)Cc1ccc(O)cc1,inactive: -1.05,inactive: -0.795,inactive: -1.82
CC(C)C(Br)C(=O)NC(N)=O (centres undefined),inactive: -0.462,inactive: 1.89,inactive: -1.23
CCOc1cccc(c1)[C@@]1(CCC(CC1)C)N1CCN(CC1)c1ccccc1 (centres undefined),inactive: 1.01,inactive: -0.682,inactive: -0.67
CC(C)c1c(CN(C)C(C)Cc2ccccc2)n(C)n(-c2ccccc2)c1=O (centres undefined),inactive: -0.175,inactive: 2.91,inactive: 0.0461
Nc1ncnc2c1ccn2[C@@H]1O[C@H](CO)[C@@H](O)[C@H]1O,inactive: -0.686,active: 5.19,inactive: 1.51
Cn1c(COP(=O)(NCCBr)NCCBr)cnc1[N+](=O)[O-] [Evofosfamide],inactive: 0.357,inactive: -0.332,inactive: 0.723
COc1ccc2c(c1OC)C(=O)O[C@@H]2[C@H]1c2cc3c(cc2CCN1C)OCO3,inactive: -0.283,inactive: -2.01,inactive: 1.7
COc1ccc(C[C@H]2NC[C@H](O)[C@H]2OC(C)=O)cc1,inactive: 0.45,inactive: -3.08,inactive: -1.85
C[N+]1(CC2CC2)[C@@H]2C[C@@H](OC(=O)[C@H](CO)c3ccccc3)C[C@H]1[C@@H]1O[C@@H]12 (some centres undefined) [Cimetropium bromide],inactive: -0.938,inactive: -0.97,inactive: -0.0482
CN1CCCN/C1=C\OC(=O)C(O)(c1ccccc1)C1CCCCC1 (centres undefined),inactive: -0.424,inactive: 2.91,inactive: -1.29
O=S1(=O)[O][Pt]2([NH]CC3(CCCCC3)C[NH]2)[O]1 [spiroplatin],–,inactive: -0.788,inactive: 0.372
C[C@]12COC(=O)C[C@@H]1CC[C@@H]1[C@@H]2CC[C@@]2(C)[C@H]1CC[C@]2(C)O [Oxandrolone],inactive: 0.176,inactive: -1.41,inactive: 3.27
CN[C@@H](CCOc1ccc([N+](=O)[O-])cc1)c1ccc(OC(=O)N(C)C)cc1,inactive: -0.731,inactive: 0.623,inactive: 1.19
CCCC(=O)O[C@H]1CN2CC[C@H](O)[C@@H]2[C@@H](O)[C@@H]1O [Celgosivir],inactive: 1.62,inactive: 1.03,inactive: 0.891
CCC(Sc1ccccc1)C(=O)O[C@@H]1C[C@H]2CC[C@@H](C1)N2C (some centres undefined),inactive: 1.1,inactive: 1.27,inactive: 0.191

SMILES,TEAD-luciferase reporter activity (compound concentration: 200 nM),TEAD-luciferase reporter activity (compound concentration: 2 uM),TEAD-luciferase reporter activity (compound concentration: 10 uM)
COC(=O)c1ccc(CC(C)NCC(O)c2ccccc2)cc1 (centres undefined),inactive: -0.996,inactive: -1.09,inactive: 2.37
C[C@H](Cc1ccc(OCC(=O)O)cc1)NC[C@H](O)c1csc(C(F)(F)F)n1,inactive: 0.345,inactive: -0.311,inactive: 0.326
COc1cccc2c1C(=O)c1c(O)c3c(c(O)c1C2=O)C[C@@](O)(C(C)O)C[C@@H]3OC1CC(N)C(O)C(C)O1 (some centres undefined),inactive: -0.985,inactive: -0.122,inactive: 3.19
CO[C@H](C)[C@](O)(C(=O)OCC1=CCN2CC[C@H](O)[C@@H]12)C(C)C,inactive: 0.99,inactive: 1.03,inactive: -1.46
CCC1=C[C@H]2CN(CCc3c([nH]c4ccccc34)[C@@](C(=O)OC)(c3cc4c(cc3OC)N(C)[C@H]3[C@@](O)(C(=O)OC)[C@H](OC(C)=O)[C@]5(CC)C=CCN6CC[C@]43[C@@H]65)C2)C1 [anhydrovinblastine],inactive: 1.55,inactive: 1.85,active: 13.6
NC[C@@H](F)C[PH](=O)O [Lesogaberan],inactive: -0.303,inactive: -0.345,inactive: -0.468
CCOC(=O)c1cncn1C(C)c1ccccc1 (centres undefined) [Etomidate],inactive: 2.21,–,inactive: -1.77
CCOC(=O)c1cncn1C(C)c1ccccc1 (centres undefined) [etomidate],–,inactive: -0.207,–
CC(C)NCC(O)c1ccccc1Cl (centres undefined) [Clorprenaline hydrochloride],inactive: -0.825,–,inactive: -0.51
CC(C)NCC(O)c1ccccc1Cl (centres undefined),–,inactive: -1.3,–
C[C@H]1CNCCc2ccc(Cl)cc21 [Lorcaserin hydrochloride],inactive: -1.42,inactive: -1.99,inactive: -0.717
COc1ccc2c(c1)[C@]13CCCC[C@@H]1[C@H](C2)N(C)CC3 [Dextromethorphan HBr],inactive: -0.637,inactive: 2.18,inactive: 2.65
C1=C(c2ccccc2)CCN(CC2CCC=C(c3ccccc3)C2)C1 (centres undefined),inactive: -1.26,inactive: 0.862,inactive: 1.54
CCC(C)C(NC(=O)C(CCCNC(=N)N)NC(=O)C(CCCNC(=N)N)NC(=O)C(CC(C)C)NC(=O)C(Cc1ccccc1)NC(=O)CNC(=O)CNC(=O)C(N)Cc1ccc(O)cc1)C(=O)NC(CCCNC(=N)N)C(=O)N1CCCC1C(=O)NC(CCCCN)C(=O)NC(CC(C)C)C(=O)NC(CCCCN)C(=O)O (centres undefined) [Dynorphin A1-13],inactive: -1.17,inactive: 0.136,inactive: 0.0213
FC(F)OC(F)(F)C(F)Cl (centres undefined) [enflurane],inactive: 1.33,inactive: -0.144,inactive: -0.24
COc1ccc2[nH]cc(C3=CCNCC3)c2c1,inactive: 0.579,inactive: -1.37,inactive: -0.465
CC(=O)OC1CN2CCC1CC2 (centres undefined),inactive: -0.979,inactive: -0.296,inactive: 1.93
Clc1ccccc1C1=NCc2nncn2-c2sc(Br)cc21,inactive: -2.81,inactive: -1.68,inactive: 2.98
Cc1ccc(NC2=NCCN2)c(Cl)c1 [tolonidine],inactive: -1.32,inactive: 0.554,inactive: -0.358

# Individual results from the entries so far.
# Entry of Clc1ccccc1C1=NCc2nncn2-c2sc(Br)cc21 under TEAD-luciferase reporter activity (compound concentration: 2 uM): inactive: -1.68
# Entry of COc1ccc2[nH]cc(C3=CCNCC3)c2c1 under TEAD-luciferase reporter activity (compound concentration: 2 uM): inactive: -1.37
# Entry of C1=C(c2ccccc2)CCN(CC2CCC=C(c3ccccc3)C2)C1 (centres undefined) under TEAD-luciferase reporter activity (compound concentration: 200 nM): inactive: -1.26
# Entry of COC(=O)c1ccc(CC(C)NCC(O)c2ccccc2)cc1 (centres undefined) under TEAD-luciferase reporter activity (compound concentration: 2 uM): inactive: -1.09
# Entry of FC(F)OC(F)(F)C(F)Cl (centres undefined) [enflurane] under TEAD-luciferase reporter activity (compound concentration: 10 uM): inactive: -0.24

# Additional records follow:

SMILES,TEAD-luciferase reporter activity (compound concentration: 200 nM),TEAD-luciferase reporter activity (compound concentration: 2 uM),TEAD-luciferase reporter activity (compound concentration: 10 uM)
CC(=O)Oc1cc(O[C@H](C)CCCc2ccccc2)cc2c1C1CC(O)CCC1C(C)N2 (some centres undefined) [levonantradol],inactive: 0.693,inactive: 0.216,inactive: 1.21
CC(C)CCN1CCC2(CC1)C(=O)Nc1ccccc12,inactive: 0.114,–,inactive: 4.42
CCC(=O)c1ccc(N)cc1,inactive: -0.331,inactive: -0.34,inactive: -0.22
CN1CC[C@@]2(C)c3cc(O)ccc3N(C)[C@@H]12 [Eseroline],inactive: 0.0497,inactive: -1.41,inactive: 1.16
CCC(C)c1cccc(C(C)CC)c1O (centres undefined),inactive: -0.467,inactive: 0.821,inactive: -0.383
Cc1c(NC2=NCCN2)ccc2nccnc12,inactive: 0.567,inactive: 1.41,inactive: -0.0718
CC[C@H]1[C@@H]2CC3[C@@H]4N(C)c5ccccc5[C@]45C[C@@H](C2C5O)N3[C@@H]1O (some centres undefined) [Rauwolfine],inactive: -0.442,inactive: 0.363,inactive: -1.72
c1ccc(C2(c3ccccc3)CC2C2=NCCN2)cc1 (centres undefined) [cibenzoline],–,inactive: 0.647,–
c1ccc(C2(c3ccccc3)CC2C2=NCCN2)cc1 (centres undefined) [Cibenzoline succinate],inactive: -1.68,–,inactive: 1.32
Cc1cccc(C)c1Cc1c[nH]cn1,inactive: -1.33,–,inactive: -0.269
CCCN1CCC[C@H](c2cccc(C#N)c2)C1,inactive: 1.5,inactive: -0.263,inactive: 1.55
CCCCCCCCCC[N+](C)(C)CCCCCCCCCC,inactive: -0.997,inactive: 1.01,inactive: -1.25
C=CCC1(CCCC)C(=O)NC(=O)NC1=O,inactive: -0.00254,inactive: 1.26,inactive: 4.71
CCC(CC1COC(N)=N1)c1ccccc1 (centres undefined),inactive: 0.284,inactive: -0.611,active: 6.68
"CC(C)CC(N)C1(c2ccc(Cl)cc2)CCC1 (single isomer, unassigned; (-)) [(-)-didesmethylsibutramine]",inactive: -0.79,inactive: 0.00381,inactive: 0.746
C=CC1CN2CCC1CC2C(O)c1ccnc2ccccc12 (centres undefined) [Cinchonine dihydrochloride],inactive: -0.898,inactive: -0.283,inactive: 0.588
Clc1cccc(SCCN2CCOCC2)n1 [fopirtoline],inactive: -0.478,inactive: 0.548,inactive: 0.191
CC(C)CCON=O,inactive: 1.57,inactive: -0.691,inactive: -0.511
O=[N+]([O-])c1ccc(Cl)c([N+](=O)[O-])c1,inactive: -1.06,inactive: -0.121,inactive: -1.71
